# Assay results as given in publication PMC2807035.
# No constants are given. Whether binding was seen depends on the method and setting. Where a sequence is shown, tags or fusion partners need not be part of it.
# Target: DS domain of human DDR2 (His-tagged, residues 26-190) (human) (UniProt Q16832)
# Assay: SEC; analytical size exclusion chromatography, 24 ml Superdex 75, 20 mM MES, 100 mM NaCl pH 6.5; 16 nmol DS domain in PBS alone or mixed with varying amounts of collagen peptide (two-fold molar excess for the complex), incubated 30 min in 0.5 ml; both purified
binder,measurement,value
"DS domain of human DDR2 (His-tagged, residues 26-190) (domain or fragment, UniProt Q16832 26-190) NPAICRYPLGMSGGQIPDEDITASSQWSESTAAKYGRLDSEEGDGAWCPEIPVEPDDLKEFLQIDLHTLHFITLVGTQGRHAGGHGIEFAPMYKINYSRDGTRWISWRNRHGKQVLDGNSNPYDIFLKDLEPPIVARFVRFIPVTDHSMNVCMRVELYGCVWLDG",binding,no binding
